The nature of this series: soluble on expression in E. coli; label from the status in PepcDB or PDB records.

We go through 23 sequences from the DeepSol protein solubility set.

For “MQKKVIAAIIGTSAISAVAATQANAATTHTVKPGESVWAISNKYGISIAKLKSLNNLTSNLIFPNQVLKVSGSSNSTSNSSRPSTNSGGGSYYTVQAGDSLSLIASKYGTTYQNIMRLNGLNNFFIYPGQKLKVSGTASSSNAASNSSRPSTNSGGGSYYTVQAGDSLSLIASKYGTTYQKIMSLNGLNNFFIYPGQKLKVTGNASTNSGSATTTNRGYNTPVFSHQNLYTWGQCTYHVFNRRAEIGKGISTYWWNANNWDNAAAADGYTIDNRPTVGSIAQTDVGYYGHVMFVERVNNDGSILVSEMNYSAAPGILTYRTVPAYQVNNYRYIH”, the “soluble on expression in E. coli” value is reported as “not soluble”. With “GPGSMGNRQSSVPLEGEGHPEVFYRGVKAAQEGRFTVSEVYFVQALTRHPGRRFWDTFTRAVLQKERNAGFEGGGASLPKDGVQEDVGAGPAVDGPLGSCNDVQPQPVRGGSVTDKADELPGSDDRGDGGDSAEQTDARTNGAQPVYDTKVVDVFLPLDGDLTHIMDYYRLLADIGHTYLQLIPSTAHVEKVTGLAARYCIFTITHTQMLLHCLMLWKEARLGDGGGFIDYAKVRNLKICSGAAEHTAQSNADAHSSNEGKQKWRTIDRTASLLFTLQLLEANCRYYCLVFLANYCALLLRSYSCLTDQRKVNRVHANVVEHLDMVSRLVLDLAGEYPNEYLSRLIMANLPKPSNFDRECLSSMGASSHMGSQKILSFGNDQHRHLYASGYPWSPTQSALIPLILARTVRLTVQENVSRTSQAQLRSPAERLSYHYTTWNFDSELVIVPGCSLYMLKKSLPGFEPGKSTFAHYATMAEHEELHVPRAAADVHWQRGSAAVPVPEDGGGAAPGSHRNPRKSEDSADAEKREALTKKCEERLIKKRRHINTDLHLSDERTCVALCLEEACATALPSLLLASILRKMSGIPESAEFINNVTDLVMGLYGSDSSEWHIIASILRKHLEG” the entry was “soluble”; with “PTGGGKTLASMAFALEHALKHDKKRIIVVIPYTSIIEQTAAVYREVFGDDAVLEHHSNLDPSRETPASRLATENWDAPIIVTTNVQFFESLFAARSSACRKLHNIVNSVVVLDEAQMLPTDFLQPIVSVIKMLSAHFRTSVVLCTATQP”, “not soluble”. The same measure for “GHMDEEDGEPPYEPESGCVEIPGLSEEEDPAPSRKIHFSTAPIQVFSTYSNEDYDRRNEDVDPMAASAEYELEKRVERLELFPVELEKDSEGLGISIIGMGAGADMGLEKLGIFVKTVTEGGAAHRDGRIQVNDLLVEVDGTSLVGVTQSFAASVLRNTKGRVRFMIGRE”: “soluble”. With “MGHHHHHHSHNGAEGDQINASKNEEDAGKMFVGGLSWDTSKKDLKDYFTKFGEVVDCTIKMDPNTGRSRGFGFILFKDAASVEKVLDQKEHRLDGRVIDPKKAMAMKKDPVKKIFVGGLNPEATEEKIREYFGEFGEIEAIELPMDPKLNKRRGFVFITFKEEEPVKKVLEKKFHTVSGSKCEIKVAQPKEVYQQQQYGSGGRGNRNRGNRGS” the entry was “soluble”. With “MTPEKHRARKRQAWLWEEDKNLRSGVRKYGEGNWSKILLHYKFNNRTSVMLKDRWRTMKKLKLISSDSED”, the “soluble on expression in E. coli” value is “soluble”.

Regarding “MIFACVNTKGGVGKTTTAVHLAVMLARQGKTLLIDGDPQASAASWAAWRRETQYDPSPTTTCLAGKAILAEGKQLATGFEHVVVDAGGRDSVGLRSALLLAQSAVIPVGASNLDAAAMTDLLEVVELARDYNPELDVRVLLTRVDPRTKDAVEMLEFLAEQKLTVLPTKVCERVAFRRAIGEGATVQELGRDQAAIAEMEAFFKEVMALEHHHHHH”, the “soluble on expression in E. coli” value is recorded as “not soluble”. The same measure for “IGDDSLFVNVGERTNVTGSAKFKRLIKEEKYSEALDVARQQVESGAQIIDINMDEGMLDAEAAMVRFLNLIAGEPDIARVPIMIDSSKWEVIEKGLKCIQGKGIVNSISMKEGVESFIHHAKLVRRYGAAVVVMAFDEVGQADTRERKIEICRRAYKILTEEVGFPPEDIIFDPNIFAVATGIEEHNNYAQDFIGACEDIKRELPHALISGGVSNVSFSFRGNDPVREAIHAVFLYYAIRNGMDMGIVNAGQLAIYDDLPGELRDAVEDVILNRRDDSTERLLELAEKYRGSKADDG”: “not soluble”; for “AKESTGFKPGSAKKGATLFKTRCQQCHTIEEGGPNKVGPNLHGIFGRHSGQVKGYSYTDANINKNVKWDEDSMSEYLTNPKKYIPGTKMAFAGLKKEKDRNDLITYMTKAAK”: “soluble”. The same measure for “GIPDLVKGPWTKEEDQKVIELVKKYGTKQWTLIAKHLKGRLGKQCRERWHNHLNPEVKKSSWTEEEDRIIFEAHKVLGNRWAEIAKLLPGRTDNAVKNHWNSTIKRKVDT”: “soluble”.

For the sequence “GSHMASMRVVKELEDLQKKPPPYLRNLSSDDANVLVWHALLLPDQPPYHLKAFNLRISFPPEYPFKPPMIKFTTKIYHPNVDENGQICLPIISSENWKPCTKTCQVLEALNVLVNRPNIREPLRMDLADLLTQNPELFRKNAEEFTLRFGVDRPS”, the “soluble on expression in E. coli” value is listed as “soluble”. The same measure for “MPDMSQLKELPFSTLQFYATAPYPCSYLPGRQARSQVAAPGHLINAGTYSQLVEQGFRRSGLFTYRPHCDNCHACVPVRVDAARFEPNRTQRRAWRSHQALRAFVAELAWSPEHYDLYTRYQQGRHPGGGMDEDSRTQYAQFLLTTRVNTRLVEFRAPQGQLAMISIIDVLDDGLSSVYTFYDPDMAGSLGTYSILWQIEQCRTLDLPWLYLGYWIADSRKMAYKANFRPLQMHVDGAWRETPPLEHHHHHH”: “soluble”; for “MTIFQGKSGKKATGGSLKQSRKKRRFELGREPTLTKLGTKTERKVIRTMGGNTKVILFTAETANVYDASEKKIKKAKIITVKANPANSHYVQRNIINKGTVIATEIGDAVVTSRPGQDGVINAKLLKLEHHHHHH”: “soluble”; for “MSNPTDNNSATSSITPNCEFLMFEVSTNLVIQFTYFVKLYPNYFQIRFASFFGAPPPPPLIEWNFKIKCFSKAIIQLFPKLISFFFSVSAFSSFTTYKPSDSFSSFESDSSPSKSSSSRKNRDKIADKKQRRNRTTFTTFQLHALEAAFDKTHYPDVYARETLAAKVQLPEVRVQVWFQNRRAKFRRQEKQDCQGEEKHSLKDTMPSWSWMSENKTDTPPMLPPANTLSSTHNNGISDEFFKTSEGKEVYGFPFAEYGTPADNTHVSKTGNVFHLNFEDSDKKSMKKESPQTPSTSSPFISEYHPPFIPYYIPNQSFSNAFNQYPMPFPYPIHFEPPQLTHSQENC”: “not soluble”. The same measure for “RKETYSSYIYKVLKQTHPDTGISQKSMSILNSFVNDIFERIATEASKLAAYNKKSTISAREIQTAVRLILPGELAKHAVSEGTRAVTKYSSSTQAQSSSARAGLQFPVGRIKRYLKRHATGRTRVGSKAAIYLTAVLEYLTAEVLELAGNAAKDLKVKRITPRHLQLAIRGDDELDSLIRATIASGGVLPHI”: “soluble”; for “MHIGQALDLVSRYDSLRNPLTSLGDYLDPELISRCLAESGTVTLRKRRLPLEMMVWCIVGMALERKEPLHQIVNRLDIMLPGNRPFVAPSAVIQARQRLGSEAVRRVFTKTAQLWHNATPHPHWCGLTLLAIDGVFWRTPDTPENDAAFPRQTHAGNPALYPQVKMVCQMELTSHLLTAAAFGTMKNSENELAEQLIEQTGDNTLTLMDKGYYSLGLLNGWSLAGEHRHWMIPLRKGAQYEELRKLGKGDHLVKLKTSPQARKKWPGLGNEVTARLLTVTRKGKVCHLLTSMTDAMRFPGGEMADLYSNRWEIELGYREIKQTMQLSRLTLRSKKPELVEQELWGVLLAYNLVRYQMIKMAEHLKGYWPNQLSFSESCGMVMRMLMTLQGASPGRIPELMSDLASMGQLVKLPTRRGRAFPRVVKERPWKYPTAPKKSQSVA”: “not soluble”; for “SAGSSIAMKTWELSNSMQEVQSIDEIYKYDKKQQQEILAAKPWTKDHHYFKYCKLSALALLKMVMHARSGGNLGVMGLMLGKVDGETMIIMDSFALPVEGTETRVNAQAAAYEYMAAYIENAKQVGRLENAIGWYHSHPGYGCWLSGIDVSTQMLNQQFQEPFVAVVIDPTRTISAGKVNLGAFRTYPKGYKPPDEGPSEYQTIPLNKIEDFGVHCKQYYALEVSYFKSSLDRKLLELLWNKYWVNTLSSSSLLTNADYTTGQVFDLSEKLEQAEAQLGRGSFMLGLDTHDRKSEDKLAKATRDSCKTTIEAIHGLMSQVIKDKLFNQVNTSAN”: “soluble”. With “MRSDAVKKGIERAPHRALFKAMGYTDEELERPLIGVVNSRNEIVPGHIHLDKIAEAVKAGIRMAGGTPVEFGAIGVCDGIAMGHTGMKYSLATRELIADSCEAMALAHSFDGMVFIPNCDKIVPGMLMAAARINVPAIVVSGGPMLSLRHNDKNLDLNSVFEAVGAYKAGKMTEKEVWEYEEKACPGCGSCSGMFTANSMNCLTEVLGMGLPGNGTVPAVYAERIRLAKKAGMKIVELVEKDIKPSDILTPKAFENALAVDMALGCSTNSVLHLPAIANEVGMEINLDIINEISSKVPNLCKLAPAGHHHVQDLYAAGGIPAVMKELSKKNLLHLDLITVTGKTVRENIENAKVRDYEVIRSIDNPYSPTGGIAVLRGNLAPDGAVVKRSAVAPEMLVHKGPARVFDSEDAAIEAIYNGKINKGDVVIIRYEGPKGGPGMREMLSPTSAIAGMGLDKDVALITDGRFSGATRGASIGHVSPEAMAGGPIAIVRDGDIISIDIPNGKLDVEIPDSEIQKRLKEWKAPAPKITKGYLGRYAKLVSSANKGAILENK” the entry was “soluble”; with “MGHHHHHHSHMDYTLTRIDPNGENDRYPLQKQEIVTDPLEQEVNKNVFMGKLNDMVNWGRKNSIWPYNFGLSCCYVEMVTSFTAVHDVARFGAEVLRASPRQADLMVVAGTCFTKMAPVIQRLYDQMLEPKWVISMGACANSGGMYDIYSVVQGVDKFIPVDVYIPGCPPRPEAYMQALMLLQESIGKERRPLSWVVGDQGVYRANMQSERERKRGERIAVTNLRTPDEI”, “not soluble”; with “TDVAARGIDINDLTHVVNYDIPQNPESYVHRIGRTGRAGKQGYAVTFVEPSEFRKFKYIQKIAKTEIRKEEVPDVKDIIGAKKRKIVSGIKEVLESGKYNDCENMAADLLEDADPQEVLSAVLKYALKDELSESNYK”, “not soluble”. Take “DCYHGDGQSYRGSFSTTVTGRTCQSWSSMTPHWHQRTTEYYPNGGLTRNYCRNPDAEIRPWCYTMDPSVRWEYCNLTQCPVME”: the “soluble on expression in E. coli” value is “soluble”.

Turning to “AMADVVPKPNWLGGLSRAAFPKRFVFGTVTSAYQVEGMAASGGRGPSIWDAFAHTPGNVAGNQNGDVATDQYHRYKEDVNLMKSLNFDAYRFSISWSRIFPDGEGRVNQEGVAYYNNLINYLLQKGITPYVNLYHYDLPLALEKKYGGWLNAKMADLFTEYADFCFKTFGNRVKHWFTFNEPRIVALLGYDQGTNPPKRCTKCAAGGNSATEPYIVAHNFLLSHAAAVARYRTKYQAAQQGKVGIVLDFNWYEALSNSTEDQAAAQRARDFHIGWYLDPLINGHYPQIMQDLVKDRLPKFTPEQARLVKGSADYIGINQYTASYMKGQQLMQQTPTSYSADWQVTYVFAKNGKPIGPQANSNWLYIVPWGMYGCVNYIKQKYGNPTVVITENGMDQPANLSRDQYLRDTTRVHFYRSYLTQLKKAIDEGANVAGYFAWSLLDNFEWLSGYTSKFGIVYVDFNTLERHPKASAYWFRDMLKH”, the “soluble on expression in E. coli” value is “soluble”. The same measure for “MGHHHHHHSHMRSKGRARKLATNNECVYGNYPEIPLEEMPDADGVASTPSLNIQEPCSPATSSEAFTPKEGSPYKAPIYIPDDIPIPAEFELRESNMPGAGLGIWTKRKIEVGEKFGPYVGEQRSNLKDPSYGWEVHLPRSRRVSVHSWLYLGKRSSDVGIAFSQADVYMPGLQCAFLS”: “not soluble”.
